Measurements reported in PMC10261145, “Ceramide sensing by human SPT-ORMDL complex for establishing sphingolipid homeostasis” (Nature Communications, 2023).
Changes are numbered by the printed parent chain. Names and notes keep the numbering of the source. These are yes or no findings as the source states them, for the method shown. Some results given as binding are weak or reduced against the parent protein; the word gives no strength.

What was measured:
Test in all cases: co-purification (anti-Flag affinity resin, then SEC; Coomassie-stained SDS-PAGE); subunits co-expressed in HEK293F; membranes solubilized with 1% GDN; anti-Flag G1 resin, elution with Flag peptide, Superose 6 in 25 mM HEPES pH 7.5, 150 mM NaCl, 0.01% GDN; which subunit carries the Flag tag is not stated
[1] = molecular target: T1, serine palmitoyltransferase (SPT) complex (SPTLC1, SPTLC2, SPTssa) (human) (UniProt O15269+O15270+Q969W0)
T1 sequence 1: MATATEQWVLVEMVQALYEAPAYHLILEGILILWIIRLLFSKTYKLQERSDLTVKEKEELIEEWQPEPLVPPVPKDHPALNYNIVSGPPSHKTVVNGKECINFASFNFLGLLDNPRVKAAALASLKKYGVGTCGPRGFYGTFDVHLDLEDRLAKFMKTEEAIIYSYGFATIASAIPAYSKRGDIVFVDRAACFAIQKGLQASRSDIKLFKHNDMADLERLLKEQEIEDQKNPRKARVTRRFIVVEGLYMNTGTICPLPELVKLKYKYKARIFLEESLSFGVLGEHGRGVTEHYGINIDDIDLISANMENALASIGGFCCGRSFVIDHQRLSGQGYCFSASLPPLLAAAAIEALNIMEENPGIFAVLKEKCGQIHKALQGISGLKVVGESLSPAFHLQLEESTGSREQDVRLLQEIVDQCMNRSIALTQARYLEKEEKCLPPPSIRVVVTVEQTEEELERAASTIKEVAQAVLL
T1 sequence 2: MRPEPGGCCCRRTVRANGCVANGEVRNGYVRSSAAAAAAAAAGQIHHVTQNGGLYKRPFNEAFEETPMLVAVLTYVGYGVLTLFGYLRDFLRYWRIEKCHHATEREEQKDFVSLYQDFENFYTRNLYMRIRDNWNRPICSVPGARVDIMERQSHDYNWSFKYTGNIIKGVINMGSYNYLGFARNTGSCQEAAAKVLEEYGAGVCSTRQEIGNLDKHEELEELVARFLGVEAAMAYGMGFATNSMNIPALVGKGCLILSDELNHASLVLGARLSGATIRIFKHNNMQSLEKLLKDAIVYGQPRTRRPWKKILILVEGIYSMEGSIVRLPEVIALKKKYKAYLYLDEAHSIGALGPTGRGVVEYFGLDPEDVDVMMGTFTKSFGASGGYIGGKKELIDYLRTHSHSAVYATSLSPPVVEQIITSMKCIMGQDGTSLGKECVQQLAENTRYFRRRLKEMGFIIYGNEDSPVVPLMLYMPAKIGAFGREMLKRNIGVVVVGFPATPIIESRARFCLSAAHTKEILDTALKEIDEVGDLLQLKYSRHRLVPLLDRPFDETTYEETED
T1 sequence 3: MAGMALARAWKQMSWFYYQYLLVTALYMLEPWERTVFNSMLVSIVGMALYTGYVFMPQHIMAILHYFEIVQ

[2] = molecular target: T2, SPT complex with Ile503 of SPTLC2 replaced by arginine (human) (UniProt O15269+O15270+Q969W0)
T2 sequence 1: T1 sequence 1
T2 sequence 2: T1 sequence 2 with I503R
T2 sequence 3: T1 sequence 3

[3] = molecular target: T3, SPT complex with the ALS-associated SPTLC1 variant Δ40-41 (Phe40/Ser41) (human) (UniProt O15269+O15270+Q969W0)
T3 sequence 1: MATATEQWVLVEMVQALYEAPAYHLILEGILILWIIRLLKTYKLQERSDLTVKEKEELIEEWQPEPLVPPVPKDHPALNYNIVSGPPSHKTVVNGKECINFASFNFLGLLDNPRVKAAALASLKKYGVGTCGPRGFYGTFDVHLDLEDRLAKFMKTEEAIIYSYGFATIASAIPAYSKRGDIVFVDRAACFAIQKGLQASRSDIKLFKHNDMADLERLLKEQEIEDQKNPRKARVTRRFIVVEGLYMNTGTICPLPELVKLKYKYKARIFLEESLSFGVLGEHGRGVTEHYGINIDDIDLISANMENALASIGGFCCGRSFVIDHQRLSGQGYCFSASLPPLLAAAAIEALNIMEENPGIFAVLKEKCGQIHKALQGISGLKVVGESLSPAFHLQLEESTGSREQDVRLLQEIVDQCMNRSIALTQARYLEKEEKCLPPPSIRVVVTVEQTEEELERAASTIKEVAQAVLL
T3 sequence 2: T1 sequence 2
T3 sequence 3: T1 sequence 3

[4] = molecular target: T4, SPT complex with the ALS-associated SPTLC1 variant Δ39 (Leu39) (human) (UniProt O15269+O15270+Q969W0)
T4 sequence 1: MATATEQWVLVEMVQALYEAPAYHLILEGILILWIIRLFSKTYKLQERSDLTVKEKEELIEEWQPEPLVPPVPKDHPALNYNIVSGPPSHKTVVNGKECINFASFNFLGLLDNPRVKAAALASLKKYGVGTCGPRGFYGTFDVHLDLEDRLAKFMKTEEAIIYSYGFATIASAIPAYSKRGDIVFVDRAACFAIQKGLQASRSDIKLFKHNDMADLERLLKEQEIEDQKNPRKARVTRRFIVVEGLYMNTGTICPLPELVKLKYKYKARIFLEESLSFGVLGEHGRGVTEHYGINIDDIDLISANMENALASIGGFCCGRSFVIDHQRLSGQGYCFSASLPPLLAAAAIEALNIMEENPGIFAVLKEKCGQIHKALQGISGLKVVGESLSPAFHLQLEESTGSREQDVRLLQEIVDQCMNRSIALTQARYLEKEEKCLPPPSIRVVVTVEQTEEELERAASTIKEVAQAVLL
T4 sequence 2: T1 sequence 2
T4 sequence 3: T1 sequence 3

[5] = molecular target: T5, SPT complex with SPTLC2-Y122A (human) (UniProt O15269+O15270+Q969W0)
T5 sequence 1: T1 sequence 1
T5 sequence 2: T1 sequence 2 with Y122A
T5 sequence 3: T1 sequence 3

B1: ORMDL3 (full-length, wild type) (natural protein, human, UniProt Q8N138 1-153, looked up)
chain: MNVGTAHSEVNPNTRVMNSRGIWLSYVLAIGLLHIVLLSIPFVSVPVVWTLTNLIHNMGMYIFLHTVKGTPFETPDQGKARLLTHWEQMDYGVQFTASRKFLTITPIVLYFLTSFYTKYDQIHFVLNTVSLMSVLIPKLPQLHGVRIFGINKY
notes: ORMDL3, human, codon-optimized full-length cDNA in pCAG (new ORMDL3-FL plasmid without the 14 extra nucleotides upstream of the ORF); cDNAs were cloned 'with an N-terminal Flag tag or without a tag'; also called ORMDL3-FL; WT ORMDL3; source: HEK293F, transiently co-transfected with the SPT subunits, purified as a complex (anti-Flag resin, SEC, GDN)
binding [1]: binds
binding [2]: binds
binding [3]: binds
binding [4]: binds
binding [5]: binds

B2: ORMDL3-N13A (natural protein, human, UniProt Q8N138 1-153, looked up)
chain: B1 chain with N13A
notes: ORMDL3, human, full-length cDNA with N13A; also called ORMDL3-N13A mutant; source: HEK293F, transiently co-transfected with the SPT subunits, purified as a complex (anti-Flag resin, SEC, GDN)
binding [1]: binds

B3: ORMDL3-ΔN17 (lacks the N-terminal 16 residues) (domain or fragment, UniProt Q8N138 17-153)
chain: MNSRGIWLSYVLAIGLLHIVLLSIPFVSVPVVWTLTNLIHNMGMYIFLHTVKGTPFETPDQGKARLLTHWEQMDYGVQFTASRKFLTITPIVLYFLTSFYTKYDQIHFVLNTVSLMSVLIPKLPQLHGVRIFGINKY
binding [1]: binds

B4: ORMDL1 (protein, UniProt Q9P0S3 1-153)
chain: MNVGVAHSEVNPNTRVMNSRGMWLTYALGVGLLHIVLLSIPFFSVPVAWTLTNIIHNLGMYVFLHAVKGTPFETPDQGKARLLTHWEQLDYGVQFTSSRKFFTISPIILYFLASFYTKYDPTHFILNTASLLSVLIPKMPQLHGVRIFGINKY
binding [1]: binds

B5: ORMDL2 (protein, UniProt Q53FV1 1-153)
chain: MNVGVAHSEVNPNTRVMNSRGIWLAYIILVGLLHMVLLSIPFFSIPVVWTLTNVIHNLATYVFLHTVKGTPFETPDQGKARLLTHWEQMDYGLQFTSSRKFLSISPIVLYLLASFYTKYDAAHFLINTASLLSVLLPKLPQFHGVRVFGINKY
binding [1]: binds

B6: ORMDL3-F63P (protein, UniProt Q8N138 1-153)
chain: B1 chain with F63P
binding [1]: binds

B7: ORMDL3-H85A (protein, UniProt Q8N138 1-153)
chain: B1 chain with H85A
binding [1]: binds

B8: ORMDL3 with Phe63 mutated to arginine (protein, UniProt Q8N138 1-153)
chain: B1 chain with F63R
binding [1]: binds

B9: ORMDL3 with Val16 replaced by arginine (protein, UniProt Q8N138 1-153)
chain: B1 chain with V16R
binding [1]: binds

B10: ORMDL3 with Ile22 replaced by arginine (protein, UniProt Q8N138 1-153)
chain: B1 chain with I22R
binding [1]: binds
